This passage reports binding results from patent US20160138036A1.

No constants are given. Whether binding was seen depends on the method and setting. In cells and extracts the contact can be indirect. Some entries that bind do so weakly or less than the wild type.

Assay [1] deals with recombinant maltose-binding protein-SOC1 (MBP-SOC1) fusion (Arabidopsis thaliana) (UniProt O64645). The assay is described as follows: in vitro pull-down: MBP-SOC1 on amylose resin, 35S-labeled in vitro translated polypeptide, autoradiography.
Assay [2] deals with recombinant MBP-BdSOC1 protein (Brachypodium distachyon). As to the kind of experiment: in vitro pull-down: MBP-BdSOC1 on amylose resin, 35S-labeled in vitro translated polypeptide, autoradiography.

B1: S-K truncated SOC1 form (peptide)
chain: VSEENMQHLKYEAANMMKKIEQLEASKRKLLGEGIGTCSIEELQQIEQQLEKSVKCIRARKTQVFKEQIEQLKQKEKALAAENEKLSEK
modifications: 35S-Met label in the pull-down assay (in vitro translated)
Consider B1, for which, in assay [1], the binding entry is listed as “binds”.

B2: BdS-IK truncated BdSOC1 form (peptide)
chain: KAHELSVLCDVEVALIVFSPSGRLYEFASASMQKTLERYKASTKDKTSSPTAQQDIEKIKADAEGLSQKLEALEAYRRKFLGEKLEDDCSFEELNSLEVKMEKSLRSIRRMKTQVFEDQLAKLRQKEMTLRKENEDLRGK
modifications: 35S-Met label in the pull-down assay (in vitro translated)
On to B2, for which the binding entry in assay [2] is “binds”.

B3: BdS-K truncated BdSOC1 form (peptide)
chain: TAQQDIEKIKADAEGLSQKLEALEAYRRKFLGEKLEDDCSFEELNSLEVKMEKSLRSIRRMKTQVFEDQLAKLRQKEMTLRKENEDLRGK
modifications: 35S-Met label in the pull-down assay (in vitro translated)
For B3, the binding entry in assay [2] is “binds”.
